Experimental findings from PubChem BioAssay AID2685 (National Center for Advancing Translational Sciences (NCATS), 2010) are described below.

The list shows a part of the results. The main result of the screen is listed elsewhere. These columns were measured beside it and carry no call. The list favours compounds with an active or inconclusive main result. Potencies come from curve fits of mixed quality, noted in brackets.

The test is described as follows: qHTS Assay for Lipid Storage Modulators in Drosophila S3 Cells.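 On cell number change: cells counted by Cell Tracker Red CMTPX staining in the red channel.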 The settings on record: BODIPY lipid droplet fluorescence, 18-24 h; for cell number change: measured here: cell count max response, cells fed with added oleic acid. Put shortly: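 Drosophila S3 cells loaded with oleic acid (400 uM, as added) and compounds at several concentrations; lipid droplets imaged by 488-nm laser-scanning cytometry, 500–530 nm intensity and object ratio to cell channel. Percent activity normalized to 20 uM Triacsin C.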
On the technique in general: qHTS replaces the single test concentration by a dilution series.

Where [1] appears, read: measured here: lipid fluorescence (Fed channel) AC50, cells fed with added oleic acid.
The mark [2] stands for this setting: measured here: cell number channel AC50, cells fed with added oleic acid.

Usually AC50 stands for the concentration giving half of the maximal activity seen. Low readings indicate greater potency, high ones weaker potency. As to `Cc1ccc(C)c(OCC(=O)Nc2cc(C(=O)O)cc(C(=O)O)c2)c1`, the cell number change was -13.9%. Further, the AC50 under setting [1] is 0.259 µM [falling, full curve, poor fit].
With `Cc1ccc(NC(=O)NC2CCCCCCC2)c(C)c1`, the cell number change is 2.6%. Further, under setting [1], the concentration at half-maximal activity (AC50) was 14.6 µM [falling, partial curve, poor fit].
As to `CCC(Oc1ccccc1)C(=O)NCc1ccc(S(N)(=O)=O)cc1` (stereo not given), the cell number change was -14.8%. Further, the concentration at half-maximal activity (AC50) under setting [1] is 0.651 µM [falling, full curve, poor fit].
In the case of `O=C(c1ccccc1)N1CCCOC1c1ccccc1` (stereo not given), the cell number change is -6.66%.
With `CCOc1nc(N=C(N)N)nc2c(C)cccc12`, the cell number change turned out to be 144%. Besides, under setting [2], the AC50 is 20.6 µM [rising, partial curve].
As to `CCc1nc2ccc(Cc3ccc4nc(CC)[nH]c4c3)cc2[nH]1`, the cell number change was -10.8%. For the same compound, the AC50 under setting [1] was 3.26 µM [rising, single point].
On to `Cc1cc(C)n2c(SCC(=O)N(CC(C)C)c3c(N)n(CC(C)C)c(=O)[nH]c3=O)nnc2n1`, for which the cell number change is 69.6%. Besides, under setting [1], the half-maximal activity concentration (AC50) was 29.1 µM [rising, single point].
For the compound `COc1c(C)cc(S(=O)(=O)N2CCOCC2)c(C)c1C`, the cell number change worked out at 11.5%. Also, the AC50 under setting [1] was 7.31 µM [rising, partial curve].
On to `CCCOc1ccc(-c2nc(SCc3ccccc3)[nH]c(=O)c2C#N)cc1OC`, for which the cell number change is -13.4%.
Take `COc1cccc(C2/C(=C(\O)c3ccc4c(c3)OCO4)C(=O)C(=O)N2CCN(C)C)c1OC` (stereo not given): the cell number change came out at 122%. The AC50 under setting [2] is 25.9 µM [rising, partial curve].
In the case of `Cc1ccc(N2C(=O)CC(Nc3cccc4ccccc34)C2=O)cc1` (stereo not given), the cell number change is -3.1%. Moreover, the AC50 under setting [1] was 6.51 µM [falling, single point].
Regarding `CCCN=Cc1sc2ccc(OCC)cc2c1O`, the cell number change was -18.3%. In addition, under setting [1], the concentration at half-maximal activity (AC50) is 10.3 µM [rising, partial curve, poor fit].
Consider `FC(F)(F)c1ccc(NCCc2ccccc2)nc1`, for which the cell number change is -2.89%.
On to `Cc1ccc(C(=O)CCC(=O)Nc2ccccc2C)cc1C`, for which the cell number change worked out at 34.7%. In addition, under setting [2], the concentration at half-maximal activity (AC50) is 0.0517 µM [rising, full curve, poor fit].
For `CC(C)=CC(=O)Nc1ccc(S(=O)(=O)Nc2onc(C)c2C)cc1`, the cell number change was determined as 5.03%. Moreover, the AC50 under setting [1] is 18.4 µM [rising, partial curve].
Take `CCCCn1nc2cc(C(=O)NCc3ccccc3OC)ccc2c1OCC`: the cell number change is -19.1%. The AC50 under setting [1] is 29.1 µM [falling, single point].
Consider `Cc1ccc(S(=O)(=O)N2CCCCC2CCNC(=O)C(=O)NC2CCCC2)cc1` (stereo not given), for which the concentration at half-maximal activity (AC50) under setting [1] is 0.103 µM [falling, full curve].
Take `Nc1[nH][nH]c(=O)c1N=Nc1ccc2c(c1)OCO2`: the cell number change is -16.7%. For the same compound, the AC50 under setting [1] was 6.51 µM [falling, single point].
In the case of `COc1ccc(Cc2nnc(NC(=O)Nc3ccc(C)cc3)s2)cc1OC`, the cell number change came out at 18.4%. Also, the half-maximal activity concentration (AC50) under setting [1] was 0.0517 µM [rising, full curve].
Turning to `COc1ccc(CCNC(=O)COC(=O)c2cccs2)cc1OC`, the cell number change was -13.5%. Besides, the concentration at half-maximal activity (AC50) under setting [2] is 2.06 µM [falling, single point]. Further, under setting [1], the AC50 is 25.9 µM [falling, single point].
Take `Cc1cc(C(=O)Nc2ccc3c(c2)OCO3)no1`: the cell number change is -21.1%.
Turning to `CCOc1ccc(C(=O)NCC(C)NC(=O)c2ccc(OCC)cc2)cc1` (stereo not given), the cell number change is 24.6%. The AC50 under setting [1] was 0.164 µM [rising, full curve, poor fit].
In the case of `CCc1ccc(N(C(=O)CNC(=O)c2ccco2)C(C(=O)NCC2CCCO2)c2ccccc2)cc1` (stereo not given), the cell number change amounted to 15.2%.
As to `O=C1c2ccccc2C(=O)N1CCCCSc1nnnn1-c1ccccc1`, the cell number change is -33.7%. Moreover, the AC50 under setting [2] is 29.1 µM [falling, single point].
Take `O=C(CCNS(=O)(=O)c1ccc(Cl)cc1)NCc1cccnc1`: the cell number change is -29.8%. For the same compound, the AC50 under setting [1] was 29.1 µM [falling, single point].
`CCC(C(=O)Nc1ccccc1C(=O)N1CCCC1)N1C(=O)c2ccccc2C1=O` (stereo not given): the cell number change was determined as 0.951%.
As to `CSCCC(N=C1NS(=O)(=O)c2ccccc21)C(=O)N1CCCC(C(N)=O)C1` (stereo not given), the cell number change is -39.8%. For the same compound, the AC50 under setting [2] was 29.1 µM [falling, single point].
Turning to `O=C(c1cc2ccccc2oc1=O)N1CCCC1`, the cell number change came to 17%. Moreover, the AC50 under setting [1] is 2.91 µM [rising, single point].
Regarding `Cc1c(C)c2ccc(O[C@@H]3O[C@H](CO)[C@H](O)[C@H](O)[C@H]3O)c(C)c2oc1=O`, the cell number change is -21.1%. The concentration at half-maximal activity (AC50) under setting [2] is 0.231 µM [falling, full curve, poor fit].
For `Cc1cccc2c1-c1sc(C(=O)Nc3ccccc3N3CCN(C)CC3)cc1CO2`, the cell number change was 3.8%. Besides, under setting [2], the half-maximal activity concentration (AC50) is 0.517 µM [rising, partial curve]. For the same compound, the concentration at half-maximal activity (AC50) under setting [1] is 1.03 µM [rising, full curve].
Take `O=c1oc2ccccc2cc1-c1csc(Nc2nc3ccc(F)cc3s2)n1`: the cell number change is -12.6%. Moreover, under setting [1], the AC50 was 11.6 µM [rising, partial curve, poor fit].
On to `CCOc1ccc(S(=O)(=O)N/N=C(\C)c2ccc(Cl)c(Cl)c2Cl)cc1`, for which the cell number change was -56.9%. Besides, the AC50 under setting [2] is 29.1 µM [falling, single point]. Moreover, the AC50 under setting [1] is 29.1 µM [falling, single point].
Consider `O=C(CN1CCc2ccccc2C1)Nc1ccccc1C(=O)NC1CC1`, for which the cell number change was 16%. In addition, under setting [1], the AC50 was 0.82 µM [falling, full curve, poor fit].
In the case of `O=C(O)CCCn1cc(NC(=O)COc2ccc(F)cc2)cn1`, the cell number change was -12.4%.
With `CCOc1ccc(C(=O)NC(=S)Nc2ccc(NC(=O)CC)cc2)cc1[N+](=O)[O-]`, the cell number change is 19.7%. In addition, the AC50 under setting [1] is 2.91 µM [rising, full curve].
`CCCCn1c(N)c(N(CCOC)C(=O)c2c(C)noc2C)c(=O)[nH]c1=O`: the cell number change stood at 10.5%.
Consider `O=C(COc1ccc(Cl)cc1)Nc1cccc(-c2ccc3nncn3n2)c1`, for which the cell number change is -14.1%. For the same compound, the AC50 under setting [2] was 0.116 µM [falling, full curve, poor fit]. In addition, the AC50 under setting [1] is 0.116 µM [falling, full curve, poor fit].
On to `Cc1ccc2nc(N(CCCN(C)C)C(=O)c3cc4ccccc4oc3=O)sc2c1`, for which the cell number change was -12.4%. For the same compound, under setting [1], the AC50 is 29.1 µM [rising, partial curve].
On to `CC1CCN(C(=O)CSc2n[nH]c(-c3cccs3)n2)CC1`, for which the cell number change was -33.1%. In addition, under setting [2], the AC50 was 20 µM [falling, single point]. For the same compound, the half-maximal activity concentration (AC50) under setting [1] was 20 µM [falling, single point].
Take `COc1cc(/C=N/NC(=O)c2ccc(CN3C(=O)c4cccc5cccc3c45)cc2)cc(OC)c1O`: the half-maximal activity concentration (AC50) under setting [1] is 1.84 µM [falling, full curve].
